Source: PMC4906169
These are yes or no findings as the source states them, for the method shown. Some binding calls cover weakened binding; strength is not graded here. Where a sequence is shown, tags or fusion partners need not be part of it.

Experiments:
[1] = target: T1, STELLO2 (STL2), split-ubiquitin fusion in yeast (Arabidopsis thaliana) (UniProt Q9SCN0); assay: two-hybrid; split-ubiquitin membrane yeast two-hybrid (MbYTH); STLs as bait (pTFB1), NubG preys (pADSL-Nx); yeast strain NYM51; growth of at least 50 spotted colonies after 4 days at 28 °C on SD lacking Leu, Trp, His and Ade with 150 mM 3-ammonium-triazole
T1 sequence: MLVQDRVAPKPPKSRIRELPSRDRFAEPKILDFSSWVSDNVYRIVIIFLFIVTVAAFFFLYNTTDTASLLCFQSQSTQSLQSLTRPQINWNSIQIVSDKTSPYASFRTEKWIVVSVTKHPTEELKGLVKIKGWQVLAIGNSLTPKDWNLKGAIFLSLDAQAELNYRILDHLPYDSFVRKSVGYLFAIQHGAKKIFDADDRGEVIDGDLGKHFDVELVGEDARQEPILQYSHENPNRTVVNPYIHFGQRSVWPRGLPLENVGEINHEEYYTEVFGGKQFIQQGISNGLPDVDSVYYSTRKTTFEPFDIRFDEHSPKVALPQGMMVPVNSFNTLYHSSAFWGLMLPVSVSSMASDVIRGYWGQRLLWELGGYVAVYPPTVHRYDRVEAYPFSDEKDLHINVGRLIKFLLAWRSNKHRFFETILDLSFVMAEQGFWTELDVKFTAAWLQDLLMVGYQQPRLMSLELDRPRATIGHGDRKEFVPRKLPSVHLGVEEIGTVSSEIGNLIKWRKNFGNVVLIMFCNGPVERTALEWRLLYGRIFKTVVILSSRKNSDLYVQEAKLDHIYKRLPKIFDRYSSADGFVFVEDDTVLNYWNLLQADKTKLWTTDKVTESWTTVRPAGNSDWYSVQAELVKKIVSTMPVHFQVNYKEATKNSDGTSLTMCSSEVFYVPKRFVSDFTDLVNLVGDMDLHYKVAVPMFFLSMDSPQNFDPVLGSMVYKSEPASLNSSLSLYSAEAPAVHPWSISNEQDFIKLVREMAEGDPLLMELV

[2] = target: T2, STELLO1 (STL1), split-ubiquitin fusion in yeast (Arabidopsis thaliana) (UniProt O22943); assay: as above
T2 sequence: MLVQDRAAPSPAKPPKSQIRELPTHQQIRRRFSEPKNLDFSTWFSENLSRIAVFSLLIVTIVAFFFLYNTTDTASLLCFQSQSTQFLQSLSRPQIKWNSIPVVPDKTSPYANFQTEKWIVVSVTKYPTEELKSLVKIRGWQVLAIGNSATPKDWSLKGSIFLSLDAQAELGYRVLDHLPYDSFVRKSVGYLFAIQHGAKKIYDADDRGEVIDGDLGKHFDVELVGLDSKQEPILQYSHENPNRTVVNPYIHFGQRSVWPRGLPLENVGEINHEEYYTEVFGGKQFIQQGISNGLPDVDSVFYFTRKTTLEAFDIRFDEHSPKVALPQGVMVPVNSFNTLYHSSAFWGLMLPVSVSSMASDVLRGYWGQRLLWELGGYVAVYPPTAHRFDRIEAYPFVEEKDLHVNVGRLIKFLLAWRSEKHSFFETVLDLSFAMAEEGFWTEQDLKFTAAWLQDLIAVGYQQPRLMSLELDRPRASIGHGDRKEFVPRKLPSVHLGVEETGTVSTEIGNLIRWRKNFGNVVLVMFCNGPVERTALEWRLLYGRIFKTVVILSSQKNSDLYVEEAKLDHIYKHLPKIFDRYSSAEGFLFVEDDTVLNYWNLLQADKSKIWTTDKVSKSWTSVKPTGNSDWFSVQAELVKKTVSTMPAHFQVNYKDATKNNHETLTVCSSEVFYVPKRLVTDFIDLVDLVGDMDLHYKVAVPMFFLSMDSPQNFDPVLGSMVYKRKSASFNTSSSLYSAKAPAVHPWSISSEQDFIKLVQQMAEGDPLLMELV

B1: Cellulose synthase CesA1, NubG prey fusion in yeast (protein, UniProt O48946 1-1081)
chain: MEASAGLVAGSYRRNELVRIRHESDGGTKPLKNMNGQICQICGDDVGLAETGDVFVACNECAFPVCRPCYEYERKDGTQCCPQCKTRFRRHRGSPRVEGDEDEDDVDDIENEFNYAQGANKARHQRHGEEFSSSSRHESQPIPLLTHGHTVSGEIRTPDTQSVRTTSGPLGPSDRNAISSPYIDPRQPVPVRIVDPSKDLNSYGLGNVDWKERVEGWKLKQEKNMLQMTGKYHEGKGGEIEGTGSNGEELQMADDTRLPMSRVVPIPSSRLTPYRVVIILRLIILCFFLQYRTTHPVKNAYPLWLTSVICEIWFAFSWLLDQFPKWYPINRETYLDRLAIRYDRDGEPSQLVPVDVFVSTVDPLKEPPLVTANTVLSILSVDYPVDKVACYVSDDGSAMLTFESLSETAEFAKKWVPFCKKFNIEPRAPEFYFAQKIDYLKDKIQPSFVKERRAMKREYEEFKVRINALVAKAQKIPEEGWTMQDGTPWPGNNTRDHPGMIQVFLGHSGGLDTDGNELPRLIYVSREKRPGFQHHKKAGAMNALIRVSAVLTNGAYLLNVDCDHYFNNSKAIKEAMCFMMDPAIGKKCCYVQFPQRFDGIDLHDRYANRNIVFFDINMKGLDGIQGPVYVGTGCCFNRQALYGYDPVLTEEDLEPNIIVKSCCGSRKKGKSSKKYNYEKRRGINRSDSNAPLFNMEDIDEGFEGYDDERSILMSQRSVEKRFGQSPVFIAATFMEQGGIPPTTNPATLLKEAIHVISCGYEDKTEWGKEIGWIYGSVTEDILTGFKMHARGWISIYCNPPRPAFKGSAPINLSDRLNQVLRWALGSIEILLSRHCPIWYGYHGRLRLLERIAYINTIVYPITSIPLIAYCILPAFCLITDRFIIPEISNYASIWFILLFISIAVTGILELRWSGVSIEDWWRNEQFWVIGGTSAHLFAVFQGLLKVLAGIDTNFTVTSKATDEDGDFAELYIFKWTALLIPPTTVLLVNLIGIVAGVSYAVNSGYQSWGPLFGKLFFALWVIAHLYPFLKGLLGRQNRTPTIVIVWSVLLASIFSLLWVRINPFVDANPNANNFNGKGGVF
- binding [1]: binds
- binding [2]: binds

B2: Cellulose synthase CesA6, NubG prey fusion in yeast (protein, UniProt Q94JQ6 1-1084)
chain: MNTGGRLIAGSHNRNEFVLINADENARIRSVQELSGQTCQICRDEIELTVDGEPFVACNECAFPVCRPCYEYERREGNQACPQCKTRFKRLKGSPRVEGDEEEDDIDDLDNEFEYGNNGIGFDQVSEGMSISRRNSGFPQSDLDSAPPGSQIPLLTYGDEDVEISSDRHALIVPPSLGGHGNRVHPVSLSDPTVAAHPRPMVPQKDLAVYGYGSVAWKDRMEEWKRKQNEKLQVVRHEGDPDFEDGDDADFPMMDEGRQPLSRKIPIKSSKINPYRMLIVLRLVILGLFFHYRILHPVKDAYALWLISVICEIWFAVSWVLDQFPKWYPIERETYLDRLSLRYEKEGKPSGLSPVDVFVSTVDPLKEPPLITANTVLSILAVDYPVDKVACYVSDDGAAMLTFEALSETAEFARKWVPFCKKYCIEPRAPEWYFCHKMDYLKNKVHPAFVRERRAMKRDYEEFKVKINALVATAQKVPEDGWTMQDGTPWPGNSVRDHPGMIQVFLGSDGVRDVENNELPRLVYVSREKRPGFDHHKKAGAMNSLIRVSGVLSNAPYLLNVDCDHYINNSKALREAMCFMMDPQSGKKICYVQFPQRFDGIDRHDRYSNRNVVFFDINMKGLDGLQGPIYVGTGCVFRRQALYGFDAPKKKKGPRKTCNCWPKWCLLCFGSRKNRKAKTVAADKKKKNREASKQIHALENIEEGRVTKGSNVEQSTEAMQMKLEKKFGQSPVFVASARMENGGMARNASPACLLKEAIQVISCGYEDKTEWGKEIGWIYGSVTEDILTGFKMHSHGWRSVYCTPKLAAFKGSAPINLSDRLHQVLRWALGSVEIFLSRHCPIWYGYGGGLKWLERLSYINSVVYPWTSLPLIVYCSLPAICLLTGKFIVPEISNYASILFMALFSSIAITGILEMQWGKVGIDDWWRNEQFWVIGGVSAHLFALFQGLLKVLAGVDTNFTVTSKAADDGEFSDLYLFKWTSLLIPPMTLLIINVIGVIVGVSDAISNGYDSWGPLFGRLFFALWVIIHLYPFLKGLLGKQDRMPTIIVVWSILLASILTLLWVRVNPFVAKGGPILEICGLDCL
- binding [1]: binds
- binding [2]: binds

B3: Cellulose synthase CesA7, NubG prey fusion in yeast (protein, UniProt Q9SWW6 1-1026)
chain: MEASAGLVAGSHNRNELVVIHNHEEPKPLKNLDGQFCEICGDQIGLTVEGDLFVACNECGFPACRPCYEYERREGTQNCPQCKTRYKRLRGSPRVEGDEDEEDIDDIEYEFNIEHEQDKHKHSAEAMLYGKMSYGRGPEDDENGRFPPVIAGGHSGEFPVGGGYGNGEHGLHKRVHPYPSSEAGSEGGWRERMDDWKLQHGNLGPEPDDDPEMGLIDEARQPLSRKVPIASSKINPYRMVIVARLVILAVFLRYRLLNPVHDALGLWLTSVICEIWFAVSWILDQFPKWFPIERETYLDRLSLRYEREGEPNMLAPVDVFVSTVDPLKEPPLVTSNTVLSILAMDYPVEKISCYVSDDGASMLTFESLSETAEFARKWVPFCKKFSIEPRAPEMYFTLKVDYLQDKVHPTFVKERRAMKREYEEFKVRINAQVAKASKVPLEGWIMQDGTPWPGNNTKDHPGMIQVFLGHSGGFDVEGHELPRLVYVSREKRPGFQHHKKAGAMNALVRVAGVLTNAPFMLNLDCDHYVNNSKAVREAMCFLMDPQIGKKVCYVQFPQRFDGIDTNDRYANRNTVFFDINMKGLDGIQGPVYVGTGCVFKRQALYGYEPPKGPKRPKMISCGCCPCFGRRRKNKKFSKNDMNGDVAALGGAEGDKEHLMSEMNFEKTFGQSSIFVTSTLMEEGGVPPSSSPAVLLKEAIHVISCGYEDKTEWGTELGWIYGSITEDILTGFKMHCRGWRSIYCMPKRPAFKGSAPINLSDRLNQVLRWALGSVEIFFSRHSPLWYGYKGGKLKWLERFAYANTTIYPFTSIPLLAYCILPAICLLTDKFIMPPISTFASLFFISLFMSIIVTGILELRWSGVSIEEWWRNEQFWVIGGISAHLFAVVQGLLKILAGIDTNFTVTSKATDDDDFGELYAFKWTTLLIPPTTVLIINIVGVVAGISDAINNGYQSWGPLFGKLFFSFWVIVHLYPFLKGLMGRQNRTPTIVVIWSVLLASIFSLLWVRIDPFVLKTKGPDTSKCGINC
- binding [1]: binds
- binding [2]: binds

B4: STELLO2 (STL2), split-ubiquitin fusion in yeast (protein, UniProt Q9SCN0 1-765)
chain: MLVQDRVAPKPPKSRIRELPSRDRFAEPKILDFSSWVSDNVYRIVIIFLFIVTVAAFFFLYNTTDTASLLCFQSQSTQSLQSLTRPQINWNSIQIVSDKTSPYASFRTEKWIVVSVTKHPTEELKGLVKIKGWQVLAIGNSLTPKDWNLKGAIFLSLDAQAELNYRILDHLPYDSFVRKSVGYLFAIQHGAKKIFDADDRGEVIDGDLGKHFDVELVGEDARQEPILQYSHENPNRTVVNPYIHFGQRSVWPRGLPLENVGEINHEEYYTEVFGGKQFIQQGISNGLPDVDSVYYSTRKTTFEPFDIRFDEHSPKVALPQGMMVPVNSFNTLYHSSAFWGLMLPVSVSSMASDVIRGYWGQRLLWELGGYVAVYPPTVHRYDRVEAYPFSDEKDLHINVGRLIKFLLAWRSNKHRFFETILDLSFVMAEQGFWTELDVKFTAAWLQDLLMVGYQQPRLMSLELDRPRATIGHGDRKEFVPRKLPSVHLGVEEIGTVSSEIGNLIKWRKNFGNVVLIMFCNGPVERTALEWRLLYGRIFKTVVILSSRKNSDLYVQEAKLDHIYKRLPKIFDRYSSADGFVFVEDDTVLNYWNLLQADKTKLWTTDKVTESWTTVRPAGNSDWYSVQAELVKKIVSTMPVHFQVNYKEATKNSDGTSLTMCSSEVFYVPKRFVSDFTDLVNLVGDMDLHYKVAVPMFFLSMDSPQNFDPVLGSMVYKSEPASLNSSLSLYSAEAPAVHPWSISNEQDFIKLVREMAEGDPLLMELV
- binding [1]: binds
